Measurements reported in US20100317863A1, “Glucocorticoid Mimetics, Methods of Making Them, Pharmaceutical Compositions and Uses Thereof” (BOEHRINGER INGELHEIM INTERNATIONAL GMBH, priority 2007, published 2010).
Some results were stated once for a whole list of compounds, not compound by compound.

What follows are compounds tested on glucocorticoid receptor (assay: Glucocorticoid receptor function, 'one or more of the above assays' (GR cell assays)). Conditions: in one or more of the above assays.
Assay type: cell-based

SMILES | activity as an agonist of the glucocorticoid receptor function, efficacy
CC[C@@H](Cn1cc(C)c2ccccc21)NS(=O)(=O)c1c(C)cc(C)cc1N [2-Amino-4,6-dimethyl-N—[(S)-1-(3-methylindol-1-ylmethyl)propyl]benzenesulfonamide] | greater than 50%
CC[C@@H](Cn1cc(C#N)c2ccccc21)NS(=O)(=O)c1c(N)cc(Cl)cc1Cl [2-Amino-4,6-dichloro-N—[(S)-1-(3-cyanoindol-1-ylmethyl)propyl]benzenesulfonamide] | greater than 50%
Cc1cn(CC(NS(=O)(=O)c2c(N)cc(Cl)cc2Cl)C(C)C)c2ccccc12 (stereo not shown) [2-Amino-4,6-dichloro-N-[2-methyl-1-(3-methylindol-1-ylmethyl)propyl]benzenesulfonamide] | greater than 50%
CC[C@@H](Cn1cc(C)c2ccccc21)NS(=O)(=O)c1c(C)cc(C)cc1Br [2-Bromo-4,6-dimethyl-N—[(S)-1-(3-methylindol-1-ylmethyl)propyl]benzenesulfonamide] | greater than 50%
CC[C@@H](Cn1cc(CC#N)c2ccccc21)NS(=O)(=O)c1c(C)cc(C)cc1N [2-Amino-N—[(S)-1-(3-cyanomethylindol-1-ylmethyl)propyl]-4,6-dimethylbenzenesulfonamide] | greater than 50%
Cc1cc(C)c(S(=O)(=O)N[C@@H](C)Cn2cc(CC#N)c3cc(F)ccc32)c(N)c1 [2-Amino-N—[(S)-2-(3-cyanomethyl-5-fluoroindol-1-yl)-1-methylethyl]-4,6-dimethylbenzenesulfonamide] | greater than 50%
Cc1cc(C)c(S(=O)(=O)N[C@@H](C)Cn2cc(C#N)c3cc(F)ccc32)c(N)c1 [2-Amino-N—[(S)-2-(3-cyano-5-fluoroindol-1-yl)-1-methylethyl]-4,6-dimethylbenzenesulfonamide] | greater than 50%
Cc1cc(C)c(S(=O)(=O)N[C@@H](C)Cn2cc(C#N)c3ccccc32)c(N)c1 [2-Amino-N—[(S)-2-(3-cyanoindol-1-yl)-1-methylethyl]-4,6-dimethylbenzenesulfonamide] | greater than 50%
CCC(Cn1cc(C)c2ccccc21)NS(=O)(=O)c1c(C)cc(C)cc1C (stereo not shown) [2,4,6-Trimethyl-N-[1-(3-methylindol-1-ylmethyl)propyl]benzenesulfonamide] | greater than 50%
Cc1cn(C[C@@H](NS(=O)(=O)c2c(N)cc(Cl)cc2Cl)C(C)C)c2ccccc12 [2-Amino-4,6-dichloro-N—[(S)-2-methyl-1-(3-methylindol-1-ylmethyl)propyl]benzenesulfonamide] | greater than 50%
CC(C)[C@@H](Cn1cc(C#N)c2ccccc21)NS(=O)(=O)c1c(N)cc(Cl)cc1Cl [2-Amino-4,6-dichloro-N—[(S)-1-(3-cyanoindol-1-ylmethyl)-2-methylpropyl]benzenesulfonamide] | greater than 50%
Cc1cc(C)c(S(=O)(=O)N[C@@H](C)Cn2cc(CC#N)c3ccccc32)c(N)c1 [2-Amino-N—[(S)-2-(3-cyanomethylindol-1-yl)-1-methylethyl]-4,6-dimethylbenzenesulfonamide] | greater than 50%
CC[C@@H](Cn1cc(C#N)c2cc(F)ccc21)NS(=O)(=O)c1c(C)cc(C)cc1N [2-Amino-N—[(S)-1-(3-cyano-5-fluoroindol-1-ylmethyl)propyl]-4,6-dimethylbenzenesulfonamide] | greater than 50%
